Where two headings read alike, the source gives them in different places. These are yes or no findings as the source states them, for the method shown. Some entries that bind do so weakly or less than the wild type.

The target of assay [1] is T1, Ply2638A full-length endolysin isoform (PlyFL) (Staphylococcus pseudintermedius phage φ2638A) (UniProt Q4ZD58).
T1 sequence: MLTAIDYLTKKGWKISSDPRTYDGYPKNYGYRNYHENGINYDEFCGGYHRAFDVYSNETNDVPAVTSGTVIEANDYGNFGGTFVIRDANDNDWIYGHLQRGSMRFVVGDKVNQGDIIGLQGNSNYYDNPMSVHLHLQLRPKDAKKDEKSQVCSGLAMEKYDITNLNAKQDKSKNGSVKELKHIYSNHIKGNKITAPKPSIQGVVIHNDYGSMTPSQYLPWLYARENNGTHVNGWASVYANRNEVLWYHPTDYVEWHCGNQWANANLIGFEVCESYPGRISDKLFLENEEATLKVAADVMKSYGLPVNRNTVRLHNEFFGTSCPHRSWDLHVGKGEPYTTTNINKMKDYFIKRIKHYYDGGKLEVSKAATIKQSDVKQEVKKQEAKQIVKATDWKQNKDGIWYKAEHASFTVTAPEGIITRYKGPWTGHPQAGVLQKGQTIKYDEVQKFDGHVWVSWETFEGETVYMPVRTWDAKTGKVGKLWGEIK
Kind of assay: SPR; Biacore X, PlyFL immobilised by amine coupling on a CMD500L chip; analytes at 750 nM, 1 µM, 2.5 µM and 5 µM in PBS pH 7.4, 10 µl/min; no KD could be determined; both purified. (In general: Surface plasmon resonance follows binding to a sensor surface in real time, without labels.)

The target in assay [2] is T2, Ply2638A central amidase domain (Staphylococcus pseudintermedius phage φ2638A) (UniProt Q4ZD58).
T2 sequence: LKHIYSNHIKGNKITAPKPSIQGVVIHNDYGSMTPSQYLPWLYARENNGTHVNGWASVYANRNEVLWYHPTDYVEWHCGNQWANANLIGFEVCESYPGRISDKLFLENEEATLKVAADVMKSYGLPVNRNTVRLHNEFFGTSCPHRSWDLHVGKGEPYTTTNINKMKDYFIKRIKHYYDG
Put plainly: SPR; Biacore X, amidase domain immobilised by amine coupling on a CMD500L chip; all analytes at 1 µM, amidase analyte at four concentrations, PBS pH 7.4; no KD could be determined; both purified.

In assay [3] the target is T2, Ply2638A central amidase domain (Staphylococcus pseudintermedius phage φ2638A). The assay is described as above. The source holds these as a separate data set.

For the molecule “Ply2638A M23 peptidase domain (from UniProt Q4ZD58 1-174) (domain or fragment)”, the values for the binding entry in assay [1] and in assay [2] were “no binding (tested: 5 µM)” and “no binding (tested: 1 µM)”, respectively.

As for “Ply2638A SH3b cell wall binding domain (from UniProt Q4ZD58 393-486) (domain or fragment)”, the binding entry in assay [1] is listed as “no binding (tested: 5 µM)”; in assay [2], “no binding (tested: 1 µM)”.

B1: Ply2638A full-length endolysin isoform (PlyFL) (enzyme, UniProt Q4ZD58 1-486)
chain: T1 sequence
B1: in assay [3], the binding entry is “binds”.

B2: Ply2638A central amidase domain (domain or fragment, UniProt Q4ZD58 180-359)
chain: T2 sequence
Turning to B2, the binding entry in assay [1] and in assay [3] was “binds” each time.

The values above are taken from paper PMC12203907.
